Measured values published in the supplement of paper PMC4604168 (melanoma cell lines).
This is one part of the list. Repeats are few or missing, and single values can be far off.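 The apoptosis fraction was the count of cleaved-PARP antibody-stained nuclei relative to all DNA-stained nuclei, imaged in 1,536-well plates. Screening doses were set so most cells survived, and baseline and induced cleaved-PARP levels vary greatly across cell lines.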

What follows are compounds tested on WM451Lu (assay: cleaved PARP positive nuclei fraction relative to DMSO control; melanoma cells; higher = more apoptosis). Details: library dose: low library concentration; 72 h.

SMILES | cleaved PARP positive nuclei fraction
CC(=O)c1c(C)c2cnc(Nc3ccc(N4CCNCC4)cn3)nc2n(C2CCCC2)c1=O [palbociclib] + Nc1cccc2c1CN(C1CCC(=O)NC1=O)C2=O [lenalidomide] (first compound 0.04 µM, partner dose 1 µM) | 58.3%
C=CCNC1=C2C[C@@H](C)C[C@H](OC)[C@H](O)[C@@H](C)/C=C(\C)[C@H](OC(N)=O)[C@@H](OC)/C=C\C=C(/C)C(=O)NC(=CC1=O)C2=O [Tanespimycin] + COC(=O)c1sccc1S(=O)(=O)Nc1ccc(Nc2ccccc2)cc1OC [GSK0660] (first compound 0.002 µM, partner dose 1 µM) | 34.1%
Clc1ccc(Nc2nnc(Cc3ccncc3)c3ccccc23)cc1 [vatalanib] + C[C@]1(c2nc3c(C(N)=O)cccc3[nH]2)CCCN1 [Veliparib] (first compound 2 µM, partner dose 1.4 µM) | 233%
COCC[n+]1c2c(n(Cc3cnccn3)c1C)C(=O)c1ccccc1C2=O + NC(=O)Nc1cc(-c2cccc(F)c2)sc1C(=O)N[C@H]1CCCNC1 [AZD7762] (first compound 0.0004 µM, partner dose 0.02 µM) | 88.8%
Cn1c(Nc2ccc(C(F)(F)F)cc2)nc2cc(Oc3ccnc(-c4ncc(C(F)(F)F)[nH]4)c3)ccc21 + CCN(CC)CCCCNc1ncc2cc(-c3cc(OC)cc(OC)c3)c(NC(=O)NC(C)(C)C)nc2n1 [PD173074] (first compound 0.08 µM, partner dose 0.1 µM) | 153%
